Patent publication US20250283871A1, “COMPOSITIONS AND METHODS FOR MODULATING THE INTERACTION BETWEEN SS18-SSX FUSION ONCOPROTEIN AND NUCLEOSOMES” (Dana-Farber Cancer Institute, Inc., priority 2020, published 2025)

B1: MTF2 (protein, UniProt Q9Y483 1-593, looked up)
Metal-response …: MRDSTGAGNSLVHKRSPLRRNQKTPTSLTKLSLQDGHKAKKPACKFEEGQDVLARWSDGLFYLGTIKKINILKQSCFIIFEDSSKSWVLWKDIQTGATGSGEMVCTICQEEYSEAPNEMVICDKCGQGYHQLCHTPHIDSSVIDSDEKWLCRQCVFATTTKRGGALKKGPNAKALQVMKQTLPYSVADLEWDAGHKTNVQQCYCYCGGPGDWYLKMLQCCKCKQWFHEACVQCLQKPMLFGDRFYTFICSVCSSGPEYLKRLPLQWVDIAHLCLYNLSVIHKKKYFDSELELMTYINENWDRLHPGELADTPKSERYEHVLEALNDYKTMFMSGKEIKKKKHLFGLRIRVPPVPPNVAFKAEKEPEGTSHEFKIKGRKASKPISDSREVSNGIEKKGKKKSVGRPPGPYTRKMIQKTAEPLLDKESISENPTLDLPCSIGRTEGTAHSSNTSDVDFTGASSAKETTSSSISRHYGLSDSRKRTRTGRSWPAAIPHLRRRRGRLPRRALQTQNSEIVKDDEGKEDYQFDELNTEILNNLADQELQLNHLKNSITSYFGAAGRIACGEKYRVLARRVTLDGKVQYLVEWEGATAS
B2: MYEF2 (protein, UniProt Q9P2K5 1-600, looked up)
Myelin expression factor 2: MADANKAEVPGATGGDSPHLQPAEPPGEPRREPHPAEAEKQQPQHSSSSNGVKMENDESAKEEKSDLKEKSTGSKKANRFHPYSKDKNSGAGEKKGPNRNRVFISNIPYDMKWQAIKDLMREKVGEVTYVELFKDAEGKSRGCGVVEFKDEEFVKKALETMNKYDLSGRPLNIKEDPDGENARRALQRTGGSFPGGHVPDMGSGLMNLPPSILNNPNIPPEVISNLQAGRLGSTIFVANLDFKVGWKKLKEVFSIAGTVKRADIKEDKDGKSRGMGTVTFEQAIEAVQAISMFNGQFLFDRPMHVKMDDKSVPHEEYRSHDGKTPQLPRGLGGIGMGLGPGGQPISASQLNIGGVMGNLGPGGMGMDGPGFGGMNRIGGGIGFGGLEAMNSMGGFGGVGRMGELYRGAMTSSMERDFGRGDIGINQGFGDSFGRLGSAMIGGFAGRIGSSNMGPVGSGISGGMGSMNSVTGGMGMGLDRMSSSFDRMGPGIGAILERSIDMDRGFLSGPMGSGMRERIGSKGNQIFVRNLPFDLTWQKLKEKFSQCGHVMFAEIKMENGKSKGCGTVRFDSPESAEKACRIMNGIKISGREIDVRLDRNA
B3: PRB1 (protein, UniProt P04280 17-392, looked up)
Basic salivary proline-rich …: QNLNEDVSQEESPSLIAGNPQGPSPQGGNKPQGPPPPPGKPQGPPPQGGNKPQGPPPPGKPQGPPPQGDKSRSPRSPPGKPQGPPPQGGNQPQGPPPPPGKPQGPPPQGGNKPQGPPPPGKPQGPPPQGDKSQSPRSPPGKPQGPPPQGGNQPQGPPPPPGKPQGPPPQGGNKPQGPPPPGKPQGPPPQGDKSQSPRSPPGKPQGPPPQGGNQPQGPPPPPGKPQGPPQQGGNRPQGPPPPGKPQGPPPQGDKSRSPQSPPGKPQGPPPQGGNQPQGPPPPPGKPQGPPPQGGNKPQGPPPPGKPQGPPAQGGSKSQSARSPPGKPQGPPQQEGNNPQGPPPPAGGNPQQPQAPPAGQPQGPPRPPQGGRPSRPPQ
B4: CDK11A (protein, UniProt Q9UQ88 1-783, looked up)
Cyclin-dependent kinase 11A: MGDEKDSWKVKTLDEILQEKKRRKEQEEKAEIKRLKNSDDRDSKRDSLEEGELRDHCMEITIRNSPYRREDSMEDRGEEDDSLAIKPPQQMSRKEKVHHRKDEKRKEKWKHARVKEREHERRKRHREEQDKARREWERQKRREMAREHSRRERDRLEQLERKRERERKMREQQKEQREQKERERRAEERRKEREARREVSAHHRTMREDYSDKVKASHWSRSPPRPPRERFELGDGRKPGEARPAPAQKPAQLKEEKMEERDLLSDLQDISDSERKTSSAESSSAESGSGSEEEEEEEEEEEEEGSTSEESEEEEEEEEEEEEETGSNSEEASEQSAEEVSEEEMSEDEERENENHLLVVPESRFDRDSGESEEAEEEVGEGTPQSSALTEGDYVPDSPALLPIELKQELPKYLPALQGCRSVEEFQCLNRIEEGTYGVVYRAKDKKTDEIVALKRLKMEKEKEGFPITSLREINTILKAQHPNIVTVREIVVGSNMDKIYIVMNYVEHDLKSLMETMKQPFLPGEVKTLMIQLLRGVKHLHDNWILHRDLKTSNLLLSHAGILKVGDFGLAREYGSPLKAYTPVVVTQWYRAPELLLGAKEYSTAVDMWSVGCIFGELLTQKPLFPGNSEIDQINKVFKELGTPSEKIWPGYSELPVVKKMTFSEHPYNNLRKRFGALLSDQGFDLMNKFLTYFPGRRISAEDGLKHEYFRETPLPIDPSMFPTWPAKSEQQRVKRGTSPRPPEGGLGYSQLGDDDLKETGFHLTTTNQGASAAGPGFSLKF
B5: RBBP7 (protein, UniProt Q16576 2-425, looked up)
Histone-binding protein RBBP7: ASKEMFEDTVEERVINEEYKIWKKNTPFLYDLVMTHALQWPSLTVQWLPEVTKPEGKDYALHWLVLGTHTSDEQNHLVVARVHIPNDDAQFDASHCDSDKGEFGGFGSVTGKIECEIKINHEGEVNRARYMPQNPHIIATKTPSSDVLVFDYTKHPAKPDPSGECNPDLRLRGHQKEGYGLSWNSNLSGHLLSASDDHTVCLWDINAGPKEGKIVDAKAIFTGHSAVVEDVAWHLLHESLFGSVADDQKLMIWDTRSNTTSKPSHLVDAHTAEVNCLSFNPYSEFILATGSADKTVALWDLRNLKLKLHTFESHKDEIFQVHWSPHNETILASSGTDRRLNVWDLSKIGEEQSAEDAEDGPPELLFIHGGHTAKISDFSWNPNEPWVICSVSEDNIMQIWQMAENIYNDEESDVTTSELEGQGS
B6: NOL6 (protein, UniProt Q9H6R4 1-1146, looked up)
Nucleolar protein 6: MGPAPAGEQLRGATGEPEVMEPALEGTGKEGKKASSRKRTLAEPPAKGLLQPVKLSRAELYKEPTNEELNRLRETEILFHSSLLRLQVEELLKEVRLSEKKKDRIDAFLREVNQRVVRVPSVPETELTDQAWLPAGVRVPLHQVPYAVKGCFRFLPPAQVTVVGSYLLGTCIRPDINVDVALTMPREILQDKDGLNQRYFRKRALYLAHLAHHLAQDPLFGSVCFSYTNGCHLKPSLLLRPRGKDERLVTVRLHPCPPPDFFRPCRLLPTKNNVRSAWYRGQSPAGDGSPEPPTPRYNTWVLQDTVLESHLQLLSTILSSAQGLKDGVALLKVWLRQRELDKGQGGFTGFLVSMLVVFLVSTRKIHTTMSGYQVLRSVLQFLATTDLTVNGISLCLSSDPSLPALADFHQAFSVVFLDSSGHLNLCADVTASTYHQVQHEARLSMMLLDSRADDGFHLLLMTPKPMIRAFDHVLHLRPLSRLQAACHRLKLWPELQDNGGDYVSAALGPLTTLLEQGLGARLNLLAHSRPPVPEWDISQDPPKHKDSGTLTLGLLLRPEGLTSVLELGPEADQPEAAKFRQFWGSRSELRRFQDGAIREAVVWEAASMSQKRLIPHQVVTHLLALHADIPETCVHYVGGPLDALIQGLKETSSTGEEALVAAVRCYDDLSRLLWGLEGLPLTVSAVQGAHPVLRYTEVFPPTPVRPAFSFYETLRERSSLLPRLDKPCPAYVEPMTVVCHLEGSGQWPQDAEAVQRVRAAFQLRLAELLTQQHGLQCRATATHTDVLKDGFVFRIRVAYQREPQILKEVQSPEGMISLRDTAASLRLERDTRQLPLLTSALHGLQQQHPAFSGVARLAKRWVRAQLLGEGFADESLDLVAAALFLHPEPFTPPSSPQVGFLRFLFLVSTFDWKNNPLFVNLNNELTVEEQVEIRSGFLAARAQLPVMVIVTPQDRKNSVWTQDGPSAQILQQLVVLAAEALPMLEKQLMDPRGPGDIRTVFRPPLDIYDVLIRLSPRHIPRHRQAVDSPAASFCRGLLSQPGPSSLMPVLGYDPPQLYLTQLREAFGDLALFFYDQHGGEVIGVLWKPTSFQPQPFKASSTKGRMVMSRGGELVMVPNVEAILEDFAVLGEGLVQTVEARSERWTV
B7: BAZ1B (protein, UniProt Q9UIG0 1-1483, looked up)
Tyrosine-protein kinase BAZ1B: MAPLLGRKPFPLVKPLPGEEPLFTIPHTQEAFRTREEYEARLERYSERIWTCKSTGSSQLTHKEAWEEEQEVAELLKEEFPAWYEKLVLEMVHHNTASLEKLVDTAWLEIMTKYAVGEECDFEVGKEKMLKVKIVKIHPLEKVDEEATEKKSDGACDSPSSDKENSSQIAQDHQKKETVVKEDEGRRESINDRARRSPRKLPTSLKKGERKWAPPKFLPHKYDVKLQNEDKIISNVPADSLIRTERPPNKEIVRYFIRHNALRAGTGENAPWVVEDELVKKYSLPSKFSDFLLDPYKYMTLNPSTKRKNTGSPDRKPSKKSKTDNSSLSSPLNPKLWCHVHLKKSLSGSPLKVKNSKNSKSPEEHLEEMMKMMSPNKLHTNFHIPKKGPPAKKPGKHSDKPLKAKGRSKGILNGQKSTGNSKSPKKGLKTPKTKMKQMTLLDMAKGTQKMTRAPRNSGGTPRTSSKPHKHLPPAALHLIAYYKENKDREDKRSALSCVISKTARLLSSEDRARLPEELRSLVQKRYELLEHKKRWASMSEEQRKEYLKKKREELKKKLKEKAKERREKEMLERLEKQKRYEDQELTGKNLPAFRLVDTPEGLPNTLFGDVAMVVEFLSCYSGLLLPDAQYPITAVSLMEALSADKGGFLYLNRVLVILLQTLLQDEIAEDYGELGMKLSEIPLTLHSVSELVRLCLRRSDVQEESEGSDTDDNKDSAAFEDNEVQDEFLEKLETSEFFELTSEEKLQILTALCHRILMTYSVQDHMETRQQMSAELWKERLAVLKEENDKKRAEKQKRKEMEAKNKENGKVENGLGKTDRKKEIVKFEPQVDTEAEDMISAVKSRRLLAIQAKKEREIQEREMKVKLERQAEEERIRKHKAAAEKAFQEGIAKAKLVMRRTPIGTDRNHNRYWLFSDEVPGLFIEKGWVHDSIDYRFNHHCKDHTVSGDEDYCPRSKKANLGKNASMNTQHGTATEVAVETTTPKQGQNLWFLCDSQKELDELLNCLHPQGIRESQLKERLEKRYQDIIHSIHLARKPNLGLKSCDGNQELLNFLRSDLIEVATRLQKGGLGYVEETSEFEARVISLEKLKDFGECVIALQASVIKKFLQGFMAPKQKRRKLQSEDSAKTEEVDEEKKMVEEAKVASALEKWKTAIREAQTFSRMHVLLGMLDACIKWDMSAENARCKVCRKKGEDDKLILCDECNKAFHLFCLRPALYEVPDGEWQCPACQPATARRNSRGRNYTEESASEDSEDDESDEEEEEEEEEEEEEDYEVAGLRLRPRKTIRGKHSVIPPAARSGRRPGKKPHSTRRSQPKAPPVDDAEVDELVLQTKRSSRRQSLELQKCEEILHKIVKYRFSWPFREPVTRDEAEDYYDVITHPMDFQTVQNKCSCGSYRSVQEFLTDMKQVFTNAEVYNCRGSHVLSCMVKTEQCLVALLHKHLPGHPYVRRKRKKFPDRLAEDEGDSEPEAVGQSRGRRQKK

Test system: BAF complex subunits and histone proteins
Test: Mass spectrometry proteomics of purified HA-SS18 WT and HA-SS18-SSX1 complexes (Tables 5A-5E)
Parameters: species or system human
Details: for Total / Unique: HA-SS18SSX1_CHR_peptides; for Total: total peptides of the identified protein; for Unique: unique peptides of the identified protein
[1] = HA-SS18WT_CHR_peptides: protein identified in HA-SS18 WT BAF complex purification from nuclease-treated solubilized chromatin (CHR), HEK-293T
[2] = HA-SS18SSX1_CHR_peptides: protein identified in the HA-SS18-SSX1 purification from solubilized chromatin (CHR), HEK-293T
[3] = HA-SS18WT_CHR_peptides: HA-SS18 WT purification from nuclease-treated solubilized chromatin (CHR), HEK-293T, label = protein identified

Row | Molecule | Total | Unique | Total (total peptides) [1] | Unique (unique peptides) [1] | Total (total peptides) [2] | Unique (unique peptides) [2] | Total (peptides) [3] | Unique (peptides) [3]
1 | B1 | 2 | 2 | – | – | – | – | – | –
2 | B2 | 2 | 2 | 1 | 1 | – | – | – | –
3 | B3 | 1 | 1 | – | – | – | – | – | –
4 | B4 | 2 | 2 | 1 | 1 | – | – | – | –
5 | B5 | 2 | 1 | – | – | – | – | – | –
6 | B6 | 2 | 2 | – | – | – | – | – | –
7 | B7 | – | – | – | – | 28 | 26 | 19 | 19
